One experiment has as its target GST-CENPN (human) (UniProt Q96H22). The experiment can be described thus: pull-down; 500 ug GST-CENPN (or GST, control) on glutathione-agarose resin, 3 h; 500 ug HA-CREB protein added, mixed overnight; western blot with anti-GST and anti-HA.
The target in experiment [1] is CENPN (centromere protein N) (human (endogenous in 5-8F)) (UniProt Q96H22). As to the kind of experiment: co-IP; endogenous proteins; 5-8F whole-cell lysate (2 mg) in RIPA lysis buffer with protease inhibitor cocktail, protein G beads, indicated antibodies or isotype-matched IgG (2 ug), 2 h; detection by western blot.

Amino acid sequences for entries named in this document (tags omitted).
UniProt Q96H22: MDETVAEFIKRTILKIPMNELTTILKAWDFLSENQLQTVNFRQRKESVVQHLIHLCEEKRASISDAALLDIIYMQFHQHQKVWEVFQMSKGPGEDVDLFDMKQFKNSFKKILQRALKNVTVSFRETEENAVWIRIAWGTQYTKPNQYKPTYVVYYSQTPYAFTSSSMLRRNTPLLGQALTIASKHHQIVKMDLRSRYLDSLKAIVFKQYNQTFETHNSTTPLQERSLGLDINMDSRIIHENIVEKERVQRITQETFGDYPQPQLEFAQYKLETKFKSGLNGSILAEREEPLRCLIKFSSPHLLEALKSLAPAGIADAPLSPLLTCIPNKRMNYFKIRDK
UniProt P16220: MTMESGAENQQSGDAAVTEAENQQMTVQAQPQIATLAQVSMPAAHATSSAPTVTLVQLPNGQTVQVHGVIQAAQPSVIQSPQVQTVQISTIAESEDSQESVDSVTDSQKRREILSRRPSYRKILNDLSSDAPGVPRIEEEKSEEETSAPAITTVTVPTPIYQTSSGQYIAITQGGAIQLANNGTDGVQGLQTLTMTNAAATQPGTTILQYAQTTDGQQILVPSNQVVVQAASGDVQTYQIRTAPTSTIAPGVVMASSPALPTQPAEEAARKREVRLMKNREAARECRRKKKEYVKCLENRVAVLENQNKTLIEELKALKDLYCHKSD

Results are given in words; binding and its absence hold for the method and conditions named. In cells and extracts the contact can be indirect. Some results given as binding are weak or reduced against the parent protein; the word gives no strength.

Regarding HA-CREB (from UniProt P16220 1-327), the binding result with GST-CENPN (human) is recorded as “binds”.

For “CREB (cAMP regulatory element binding protein) (from UniProt P16220 1-327)”, in experiment [1], the binding entry is “binds”.

Source of the values: publication PMC10813569.
